Measured values reported in article PMC7674490.
Results are given in words; binding and its absence hold for the method and conditions named. In cells and extracts the contact can be indirect. Some results given as binding are weak or reduced against the parent protein; the word gives no strength.

The chains behind the UniProt entries cited, without tags or fusion partners. Residues count along the entry.
UniProt Q80YE7: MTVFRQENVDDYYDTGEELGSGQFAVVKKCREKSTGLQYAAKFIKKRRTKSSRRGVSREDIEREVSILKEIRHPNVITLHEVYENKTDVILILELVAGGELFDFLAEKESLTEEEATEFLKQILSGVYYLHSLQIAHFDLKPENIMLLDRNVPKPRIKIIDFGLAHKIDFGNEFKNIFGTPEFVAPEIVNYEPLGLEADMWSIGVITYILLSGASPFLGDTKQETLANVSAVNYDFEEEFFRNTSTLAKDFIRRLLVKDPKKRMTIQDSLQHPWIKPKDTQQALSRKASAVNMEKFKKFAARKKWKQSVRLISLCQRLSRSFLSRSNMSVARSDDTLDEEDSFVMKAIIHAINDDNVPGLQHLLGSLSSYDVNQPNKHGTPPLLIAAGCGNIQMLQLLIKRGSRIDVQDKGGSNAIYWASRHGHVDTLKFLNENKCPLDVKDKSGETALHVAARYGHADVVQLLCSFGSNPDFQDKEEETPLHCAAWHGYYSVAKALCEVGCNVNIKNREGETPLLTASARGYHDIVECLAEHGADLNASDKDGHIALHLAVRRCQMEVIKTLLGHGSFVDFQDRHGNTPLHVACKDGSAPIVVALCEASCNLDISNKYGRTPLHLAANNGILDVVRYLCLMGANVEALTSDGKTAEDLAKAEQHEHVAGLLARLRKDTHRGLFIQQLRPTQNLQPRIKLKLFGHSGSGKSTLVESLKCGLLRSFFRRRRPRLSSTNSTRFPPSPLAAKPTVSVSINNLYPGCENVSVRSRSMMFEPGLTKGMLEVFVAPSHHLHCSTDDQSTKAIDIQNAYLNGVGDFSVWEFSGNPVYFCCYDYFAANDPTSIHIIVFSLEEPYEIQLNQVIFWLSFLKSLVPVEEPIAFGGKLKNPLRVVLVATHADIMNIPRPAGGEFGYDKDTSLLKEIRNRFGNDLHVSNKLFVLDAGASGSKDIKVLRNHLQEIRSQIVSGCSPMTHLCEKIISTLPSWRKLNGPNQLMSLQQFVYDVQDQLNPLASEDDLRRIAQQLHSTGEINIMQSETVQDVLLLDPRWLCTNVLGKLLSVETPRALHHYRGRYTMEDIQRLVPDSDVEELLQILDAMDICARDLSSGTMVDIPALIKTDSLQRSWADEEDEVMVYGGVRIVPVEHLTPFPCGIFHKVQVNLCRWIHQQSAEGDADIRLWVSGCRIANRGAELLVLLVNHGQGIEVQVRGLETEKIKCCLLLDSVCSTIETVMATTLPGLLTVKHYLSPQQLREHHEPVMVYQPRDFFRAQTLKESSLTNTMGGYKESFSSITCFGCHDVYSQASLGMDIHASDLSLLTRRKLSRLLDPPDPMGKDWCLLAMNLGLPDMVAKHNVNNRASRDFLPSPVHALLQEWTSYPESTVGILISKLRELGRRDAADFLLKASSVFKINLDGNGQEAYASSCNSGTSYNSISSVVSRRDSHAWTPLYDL
UniProt Q01097, residues 27-1482: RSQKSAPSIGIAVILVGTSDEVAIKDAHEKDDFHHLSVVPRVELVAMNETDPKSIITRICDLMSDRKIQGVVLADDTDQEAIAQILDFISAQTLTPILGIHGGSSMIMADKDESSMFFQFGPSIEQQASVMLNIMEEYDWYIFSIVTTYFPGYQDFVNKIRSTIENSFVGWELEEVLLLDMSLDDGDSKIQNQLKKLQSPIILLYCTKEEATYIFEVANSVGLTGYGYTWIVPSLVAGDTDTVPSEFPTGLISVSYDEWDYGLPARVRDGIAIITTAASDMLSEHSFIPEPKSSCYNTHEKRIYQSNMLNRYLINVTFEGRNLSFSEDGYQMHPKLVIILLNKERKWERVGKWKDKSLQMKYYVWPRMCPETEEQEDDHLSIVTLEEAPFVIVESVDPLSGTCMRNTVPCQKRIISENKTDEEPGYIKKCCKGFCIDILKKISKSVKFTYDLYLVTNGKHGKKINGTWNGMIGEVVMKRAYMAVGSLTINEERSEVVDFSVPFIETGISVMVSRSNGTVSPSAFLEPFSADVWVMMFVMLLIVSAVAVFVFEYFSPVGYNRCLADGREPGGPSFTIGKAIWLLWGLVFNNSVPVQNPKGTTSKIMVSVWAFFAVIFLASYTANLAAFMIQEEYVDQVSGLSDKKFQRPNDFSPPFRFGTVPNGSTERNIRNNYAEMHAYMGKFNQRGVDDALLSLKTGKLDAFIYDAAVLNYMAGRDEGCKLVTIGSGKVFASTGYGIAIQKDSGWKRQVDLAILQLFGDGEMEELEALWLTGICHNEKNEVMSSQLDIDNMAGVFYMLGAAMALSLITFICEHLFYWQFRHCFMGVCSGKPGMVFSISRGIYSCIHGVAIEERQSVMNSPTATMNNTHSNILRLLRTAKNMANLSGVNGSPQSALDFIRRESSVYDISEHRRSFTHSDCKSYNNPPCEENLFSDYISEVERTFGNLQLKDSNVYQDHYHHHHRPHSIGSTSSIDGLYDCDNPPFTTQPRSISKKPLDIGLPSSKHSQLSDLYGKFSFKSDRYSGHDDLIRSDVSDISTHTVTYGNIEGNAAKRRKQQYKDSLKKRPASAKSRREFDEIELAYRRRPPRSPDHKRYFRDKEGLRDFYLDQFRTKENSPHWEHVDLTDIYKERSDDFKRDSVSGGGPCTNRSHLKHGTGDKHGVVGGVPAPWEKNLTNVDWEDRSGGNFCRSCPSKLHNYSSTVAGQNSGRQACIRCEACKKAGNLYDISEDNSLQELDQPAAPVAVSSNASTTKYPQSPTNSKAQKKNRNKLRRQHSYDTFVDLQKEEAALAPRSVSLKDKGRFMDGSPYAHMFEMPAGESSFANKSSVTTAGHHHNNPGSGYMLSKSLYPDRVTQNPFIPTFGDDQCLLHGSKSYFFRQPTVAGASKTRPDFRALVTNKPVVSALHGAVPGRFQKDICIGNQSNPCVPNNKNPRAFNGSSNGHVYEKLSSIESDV

Biological target: Death-associated protein kinase 1 (mouse (endogenous in cortical tissue)) (UniProt Q80YE7)
Assay: co-IP; rabbit anti-DAPK1 antibody on Protein G Dynabeads; WT and YAC128 mouse cortical tissue in gentle lysis buffer (50 mM Tris, 150 mM NaCl, 1% Igepal), overnight at 4°C; blotted for DAPK1 and GluN2B; control rabbit IgG

With “NMDA receptor subunit type 2B (from UniProt Q01097 27-1482)” the binding was “binds”.
